According to paper PMC2909962:
Results are given in words; binding and its absence hold for the method and conditions named. Some results given as binding are weak or reduced against the parent protein; the word gives no strength.

Amino acid sequences for entries named in this document (tags omitted). A change or cut given only in a name is not applied to a line headed by its entry.
UniProt P06756: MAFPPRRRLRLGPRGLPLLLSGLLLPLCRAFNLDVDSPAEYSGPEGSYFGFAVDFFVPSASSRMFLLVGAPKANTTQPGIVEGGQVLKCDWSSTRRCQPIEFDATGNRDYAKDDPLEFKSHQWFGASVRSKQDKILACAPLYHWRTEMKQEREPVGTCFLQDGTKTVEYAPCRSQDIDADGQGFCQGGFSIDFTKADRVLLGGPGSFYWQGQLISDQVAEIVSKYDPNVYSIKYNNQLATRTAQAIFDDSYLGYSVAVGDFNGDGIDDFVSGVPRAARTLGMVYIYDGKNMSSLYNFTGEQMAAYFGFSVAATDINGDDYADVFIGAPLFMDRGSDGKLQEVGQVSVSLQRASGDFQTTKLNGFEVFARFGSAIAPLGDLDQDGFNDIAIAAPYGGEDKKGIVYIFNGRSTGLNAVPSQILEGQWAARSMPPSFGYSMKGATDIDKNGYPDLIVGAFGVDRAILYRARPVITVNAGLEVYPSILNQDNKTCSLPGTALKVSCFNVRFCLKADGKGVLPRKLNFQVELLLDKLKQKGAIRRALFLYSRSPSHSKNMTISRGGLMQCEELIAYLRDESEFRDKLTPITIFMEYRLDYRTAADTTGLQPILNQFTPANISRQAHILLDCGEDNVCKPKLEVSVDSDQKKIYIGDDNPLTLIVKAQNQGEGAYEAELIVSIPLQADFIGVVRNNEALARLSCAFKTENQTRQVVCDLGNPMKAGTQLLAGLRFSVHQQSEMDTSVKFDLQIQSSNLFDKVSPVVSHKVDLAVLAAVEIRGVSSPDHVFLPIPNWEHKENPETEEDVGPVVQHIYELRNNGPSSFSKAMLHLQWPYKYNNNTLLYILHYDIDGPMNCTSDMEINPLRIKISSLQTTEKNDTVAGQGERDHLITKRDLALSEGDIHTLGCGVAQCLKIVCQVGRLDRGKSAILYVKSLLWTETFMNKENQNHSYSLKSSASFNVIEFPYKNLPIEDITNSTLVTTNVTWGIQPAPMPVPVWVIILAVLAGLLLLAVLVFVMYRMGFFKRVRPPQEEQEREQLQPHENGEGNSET

Target: Integrin αvβ5 (human (endogenous in MDA-MB-435 and MCF7)) (UniProt P06756)
Assay: ELISA; cell-based, peptide blocking: MDA-MB-435 and MCF7 cells prechilled to 4°C, preincubated 1 hr with increasing concentrations of GRGDSP or control GRGESP, then Ad5-GFP (0.04 ug/uL) for 6 hrs at 4°C; bound virus detected with anti-Ad5; only the binder purified

## GRGDSP [synthetic peptide GRGDSP]
  binding: binds
